Measured values: publication PMC11304257
Results are given in words; binding and its absence hold for the method and conditions named. Binding seen in cells or lysates may run through a third protein. Some entries that bind do so weakly or less than the wild type. For some assays here: Tags and fused reporters may be left off the sequences shown.

By UniProt entry, the sequences of proteins in these tests, tags left out.
UniProt P78527: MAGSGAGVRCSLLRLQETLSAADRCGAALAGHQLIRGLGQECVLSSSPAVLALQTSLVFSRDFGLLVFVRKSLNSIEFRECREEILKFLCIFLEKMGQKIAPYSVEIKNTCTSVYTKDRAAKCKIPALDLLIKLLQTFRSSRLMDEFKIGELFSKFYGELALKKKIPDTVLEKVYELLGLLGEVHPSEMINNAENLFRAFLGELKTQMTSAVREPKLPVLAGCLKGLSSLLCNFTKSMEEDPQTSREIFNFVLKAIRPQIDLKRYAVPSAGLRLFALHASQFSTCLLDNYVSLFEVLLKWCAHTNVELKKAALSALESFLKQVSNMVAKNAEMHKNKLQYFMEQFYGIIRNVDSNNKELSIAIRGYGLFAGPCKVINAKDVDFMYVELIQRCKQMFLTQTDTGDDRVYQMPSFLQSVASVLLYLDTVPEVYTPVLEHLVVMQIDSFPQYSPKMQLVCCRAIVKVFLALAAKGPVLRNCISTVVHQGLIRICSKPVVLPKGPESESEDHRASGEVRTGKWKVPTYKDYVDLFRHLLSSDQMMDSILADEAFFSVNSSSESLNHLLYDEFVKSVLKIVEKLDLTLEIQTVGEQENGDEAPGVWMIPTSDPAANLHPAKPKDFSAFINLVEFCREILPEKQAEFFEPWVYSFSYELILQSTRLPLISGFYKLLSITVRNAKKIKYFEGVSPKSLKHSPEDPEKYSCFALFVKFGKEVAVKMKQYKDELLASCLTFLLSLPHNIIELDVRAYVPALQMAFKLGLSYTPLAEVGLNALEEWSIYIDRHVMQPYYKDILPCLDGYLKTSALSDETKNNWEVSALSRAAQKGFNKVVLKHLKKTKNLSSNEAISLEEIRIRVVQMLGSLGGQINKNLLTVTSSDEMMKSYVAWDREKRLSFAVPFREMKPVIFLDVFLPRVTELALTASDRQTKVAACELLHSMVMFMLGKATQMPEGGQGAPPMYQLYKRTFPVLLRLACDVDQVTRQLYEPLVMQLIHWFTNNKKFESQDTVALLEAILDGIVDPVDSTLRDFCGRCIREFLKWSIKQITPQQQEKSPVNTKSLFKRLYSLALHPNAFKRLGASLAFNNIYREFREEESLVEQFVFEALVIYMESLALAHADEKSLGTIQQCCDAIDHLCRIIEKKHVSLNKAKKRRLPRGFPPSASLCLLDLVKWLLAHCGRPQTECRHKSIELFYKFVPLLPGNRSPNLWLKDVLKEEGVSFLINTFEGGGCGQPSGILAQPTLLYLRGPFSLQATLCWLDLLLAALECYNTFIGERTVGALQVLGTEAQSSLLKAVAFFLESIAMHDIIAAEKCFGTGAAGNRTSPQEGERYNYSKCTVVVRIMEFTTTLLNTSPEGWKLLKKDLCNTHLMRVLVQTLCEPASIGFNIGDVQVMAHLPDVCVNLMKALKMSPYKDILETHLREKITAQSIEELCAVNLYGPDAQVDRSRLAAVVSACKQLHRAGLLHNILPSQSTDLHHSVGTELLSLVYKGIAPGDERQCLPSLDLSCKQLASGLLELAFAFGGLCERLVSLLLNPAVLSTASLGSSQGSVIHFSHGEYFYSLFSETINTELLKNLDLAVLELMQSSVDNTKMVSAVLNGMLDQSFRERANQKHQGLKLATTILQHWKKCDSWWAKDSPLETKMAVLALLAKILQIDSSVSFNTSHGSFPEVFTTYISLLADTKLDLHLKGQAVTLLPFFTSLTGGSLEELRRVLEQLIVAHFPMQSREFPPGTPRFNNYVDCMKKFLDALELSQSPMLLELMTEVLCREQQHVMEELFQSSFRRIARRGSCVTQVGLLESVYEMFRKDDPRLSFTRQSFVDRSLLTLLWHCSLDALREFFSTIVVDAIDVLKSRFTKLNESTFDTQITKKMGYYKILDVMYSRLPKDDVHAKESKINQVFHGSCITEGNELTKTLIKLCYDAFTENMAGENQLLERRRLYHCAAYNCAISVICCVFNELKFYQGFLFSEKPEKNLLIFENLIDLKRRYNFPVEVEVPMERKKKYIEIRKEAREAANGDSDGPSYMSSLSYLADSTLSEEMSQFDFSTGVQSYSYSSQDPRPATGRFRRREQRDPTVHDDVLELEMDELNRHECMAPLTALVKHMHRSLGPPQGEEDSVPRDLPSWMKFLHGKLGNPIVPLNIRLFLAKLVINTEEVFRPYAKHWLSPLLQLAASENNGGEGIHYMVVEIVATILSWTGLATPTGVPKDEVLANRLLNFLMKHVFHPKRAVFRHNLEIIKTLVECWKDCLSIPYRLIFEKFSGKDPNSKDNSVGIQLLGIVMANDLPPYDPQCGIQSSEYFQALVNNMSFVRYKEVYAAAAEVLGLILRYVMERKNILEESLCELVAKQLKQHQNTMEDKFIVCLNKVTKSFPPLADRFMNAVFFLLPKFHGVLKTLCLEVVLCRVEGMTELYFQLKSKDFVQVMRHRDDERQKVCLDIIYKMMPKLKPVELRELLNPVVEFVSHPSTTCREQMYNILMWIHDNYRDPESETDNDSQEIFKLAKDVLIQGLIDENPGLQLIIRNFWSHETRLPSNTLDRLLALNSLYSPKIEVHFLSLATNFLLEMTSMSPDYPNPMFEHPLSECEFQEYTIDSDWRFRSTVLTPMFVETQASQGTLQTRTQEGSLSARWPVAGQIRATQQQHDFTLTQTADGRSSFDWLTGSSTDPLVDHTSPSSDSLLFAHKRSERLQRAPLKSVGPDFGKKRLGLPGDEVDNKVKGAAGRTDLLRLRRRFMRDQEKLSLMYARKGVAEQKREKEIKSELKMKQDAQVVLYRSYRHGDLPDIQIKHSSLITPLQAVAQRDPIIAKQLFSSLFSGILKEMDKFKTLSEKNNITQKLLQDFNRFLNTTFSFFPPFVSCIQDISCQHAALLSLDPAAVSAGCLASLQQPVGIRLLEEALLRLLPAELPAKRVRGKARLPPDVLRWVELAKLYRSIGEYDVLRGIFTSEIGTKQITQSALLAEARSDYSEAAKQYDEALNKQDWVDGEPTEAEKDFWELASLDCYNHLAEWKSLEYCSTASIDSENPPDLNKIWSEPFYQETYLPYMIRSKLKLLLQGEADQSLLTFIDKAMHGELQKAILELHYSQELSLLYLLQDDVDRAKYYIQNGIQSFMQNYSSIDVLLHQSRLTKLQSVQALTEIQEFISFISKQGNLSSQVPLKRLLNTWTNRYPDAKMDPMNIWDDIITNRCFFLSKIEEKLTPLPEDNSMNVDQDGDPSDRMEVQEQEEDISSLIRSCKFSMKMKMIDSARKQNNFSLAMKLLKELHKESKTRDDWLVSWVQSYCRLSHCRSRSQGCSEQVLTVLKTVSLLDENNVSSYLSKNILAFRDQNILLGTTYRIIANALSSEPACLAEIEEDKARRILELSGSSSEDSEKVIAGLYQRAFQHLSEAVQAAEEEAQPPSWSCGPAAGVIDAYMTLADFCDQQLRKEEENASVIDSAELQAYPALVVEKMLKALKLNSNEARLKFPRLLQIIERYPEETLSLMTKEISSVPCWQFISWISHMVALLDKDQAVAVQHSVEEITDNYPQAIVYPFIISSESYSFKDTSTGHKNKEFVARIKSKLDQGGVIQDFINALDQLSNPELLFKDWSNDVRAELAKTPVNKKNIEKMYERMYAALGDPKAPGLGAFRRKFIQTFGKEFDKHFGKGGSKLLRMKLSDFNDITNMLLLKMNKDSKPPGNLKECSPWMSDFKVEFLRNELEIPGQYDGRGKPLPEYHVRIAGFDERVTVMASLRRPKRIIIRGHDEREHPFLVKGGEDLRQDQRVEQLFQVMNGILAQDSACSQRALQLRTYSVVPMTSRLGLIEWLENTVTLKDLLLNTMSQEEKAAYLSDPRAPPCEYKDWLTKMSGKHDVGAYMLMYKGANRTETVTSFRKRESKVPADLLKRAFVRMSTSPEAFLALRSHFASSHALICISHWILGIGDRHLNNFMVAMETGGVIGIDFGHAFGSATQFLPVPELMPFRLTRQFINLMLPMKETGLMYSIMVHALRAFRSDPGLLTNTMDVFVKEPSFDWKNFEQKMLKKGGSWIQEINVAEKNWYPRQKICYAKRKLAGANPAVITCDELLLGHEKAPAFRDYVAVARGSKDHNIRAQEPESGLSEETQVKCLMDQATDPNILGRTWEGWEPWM

Key:
[1] = biological target: T1, Flag-TRIM24 wild type (tripartite motif containing 24) (human) (UniProt O15164); test: condition: only in NHA cells lacking the HRas^V12 mutation; co-IP; NHA cells without HRas^V12, co-transfected with TRIM24, Ku70 and Ku80 constructs; lysate, Western blot
T1 sequence: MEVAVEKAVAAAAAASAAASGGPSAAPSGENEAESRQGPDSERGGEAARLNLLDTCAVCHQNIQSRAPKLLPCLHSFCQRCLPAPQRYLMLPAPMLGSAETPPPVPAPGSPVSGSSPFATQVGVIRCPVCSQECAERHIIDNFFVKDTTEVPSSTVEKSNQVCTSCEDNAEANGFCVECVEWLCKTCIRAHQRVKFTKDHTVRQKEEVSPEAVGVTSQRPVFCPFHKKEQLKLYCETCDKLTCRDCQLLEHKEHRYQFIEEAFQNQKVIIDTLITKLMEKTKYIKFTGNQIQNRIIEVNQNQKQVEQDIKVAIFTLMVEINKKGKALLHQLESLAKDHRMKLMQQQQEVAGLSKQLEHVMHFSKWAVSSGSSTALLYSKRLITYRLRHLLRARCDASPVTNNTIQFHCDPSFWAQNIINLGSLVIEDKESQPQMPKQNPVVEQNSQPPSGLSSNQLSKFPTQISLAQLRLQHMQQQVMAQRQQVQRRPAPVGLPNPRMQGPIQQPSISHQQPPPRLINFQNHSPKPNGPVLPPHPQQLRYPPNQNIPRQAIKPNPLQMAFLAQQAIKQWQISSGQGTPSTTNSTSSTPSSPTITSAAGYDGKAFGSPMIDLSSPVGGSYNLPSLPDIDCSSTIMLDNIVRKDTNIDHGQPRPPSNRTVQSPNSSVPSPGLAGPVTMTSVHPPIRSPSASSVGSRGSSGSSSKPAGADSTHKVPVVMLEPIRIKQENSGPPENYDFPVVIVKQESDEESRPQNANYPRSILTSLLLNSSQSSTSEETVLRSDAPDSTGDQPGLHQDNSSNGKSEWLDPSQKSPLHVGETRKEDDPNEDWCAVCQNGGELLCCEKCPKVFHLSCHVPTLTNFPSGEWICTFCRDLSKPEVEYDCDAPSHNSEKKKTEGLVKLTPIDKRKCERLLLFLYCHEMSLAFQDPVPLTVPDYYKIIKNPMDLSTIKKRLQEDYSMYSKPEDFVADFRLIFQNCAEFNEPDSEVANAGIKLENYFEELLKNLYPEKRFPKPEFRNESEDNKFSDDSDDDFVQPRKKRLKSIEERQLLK

[2] = biological target: T1, Flag-TRIM24 wild type (tripartite motif containing 24) (human); test: co-IP; HEK293T cells without HRas^V12 (Figure S7A,B); lysate
[3] = biological target: T2, TRIM24 deletion mutant D2 (lacks residues 393-1050) (human) (UniProt O15164); test: co-IP; lysates of NHA/HRas^V12 cells expressing TRIM24 WT, deletion or point mutants; IP lysis buffer (20 mM Tris-HCl pH 7.5, 150 mM NaCl, 1 mM EDTA, 1% Triton X-100), 4 °C, four washes, Western blot; endogenous DNA-PK complex; some panels after NU7441 (4 µM, 24 h), Dabrafenib (40 µM, 24 h), U3 snoRNA knock-down or PHAX knock-down
T2 sequence: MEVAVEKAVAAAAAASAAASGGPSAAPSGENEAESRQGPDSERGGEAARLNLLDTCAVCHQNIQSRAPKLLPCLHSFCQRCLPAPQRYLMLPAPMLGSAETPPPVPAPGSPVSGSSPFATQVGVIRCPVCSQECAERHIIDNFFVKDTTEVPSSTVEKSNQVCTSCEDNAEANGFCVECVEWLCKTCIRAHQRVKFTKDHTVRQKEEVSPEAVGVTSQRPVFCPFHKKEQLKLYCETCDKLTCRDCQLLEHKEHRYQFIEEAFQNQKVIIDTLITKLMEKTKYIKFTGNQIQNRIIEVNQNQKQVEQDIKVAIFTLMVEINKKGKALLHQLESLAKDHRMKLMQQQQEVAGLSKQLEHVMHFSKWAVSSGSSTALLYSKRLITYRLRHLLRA

[4] = biological target: T3, TRIM24 deletion mutant D1 (lacks residues 824-1050) (human) (UniProt O15164); test: as above
T3 sequence: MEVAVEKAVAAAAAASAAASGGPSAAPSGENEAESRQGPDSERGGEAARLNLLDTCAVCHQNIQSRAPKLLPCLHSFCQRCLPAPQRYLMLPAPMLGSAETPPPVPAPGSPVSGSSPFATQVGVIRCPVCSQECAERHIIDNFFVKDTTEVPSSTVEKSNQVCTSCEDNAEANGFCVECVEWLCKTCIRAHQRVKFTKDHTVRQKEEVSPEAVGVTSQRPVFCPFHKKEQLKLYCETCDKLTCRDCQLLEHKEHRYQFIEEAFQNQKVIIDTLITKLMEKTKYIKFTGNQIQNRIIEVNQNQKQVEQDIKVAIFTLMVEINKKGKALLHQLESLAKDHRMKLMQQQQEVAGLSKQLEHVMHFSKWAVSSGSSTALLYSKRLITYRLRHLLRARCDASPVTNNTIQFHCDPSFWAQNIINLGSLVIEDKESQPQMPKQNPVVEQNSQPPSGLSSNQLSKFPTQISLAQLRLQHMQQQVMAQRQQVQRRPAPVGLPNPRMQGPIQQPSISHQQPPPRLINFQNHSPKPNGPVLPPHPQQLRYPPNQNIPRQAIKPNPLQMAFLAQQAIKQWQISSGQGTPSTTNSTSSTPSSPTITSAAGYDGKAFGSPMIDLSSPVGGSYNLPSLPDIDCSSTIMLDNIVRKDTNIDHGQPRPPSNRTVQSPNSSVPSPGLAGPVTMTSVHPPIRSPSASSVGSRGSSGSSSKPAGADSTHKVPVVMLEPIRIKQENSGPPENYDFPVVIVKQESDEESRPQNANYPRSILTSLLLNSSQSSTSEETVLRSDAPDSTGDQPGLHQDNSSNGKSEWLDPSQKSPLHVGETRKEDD

[5] = biological target: T1, Flag-TRIM24 wild type (tripartite motif containing 24) (human); test: co-IP; HEK293T cells with HRas^V12 (Figure S7A,B); lysate

In the case of “DNA-dependent protein kinase catalytic subunit (DNA-PKcs) (from UniProt P78527 1-4128) (enzyme)”, the binding [1] is reported as “no binding”, the binding [2] is reported as “no binding (condition: in HEK293T cells without HRas^V12)” and the binding [3] is reported as “no binding”. The binding [4] was “binds” and the binding [5] was “binds”.
